Results taken from article PMC6361795.
Construct, isoform or probe ends are uncertain for at least one entry.

Chains of the proteins cited; added tags and fusions are not shown. Lines headed by an entry give the natural chain unless they say otherwise; changes in a name come on top.
UniProt A0QST8: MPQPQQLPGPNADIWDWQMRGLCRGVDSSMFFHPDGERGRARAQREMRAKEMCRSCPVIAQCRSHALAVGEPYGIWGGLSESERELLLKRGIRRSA

Biological target: apo-WhiB3, diamide-treated (Mycobacterium smegmatis MC2 155) (UniProt A0QST8)
Assay: EMSA
Conditions: apo-WhiB3 treated with diamide, anaerobic, 10 nM probe; EMSA: 25°C, 20 min; 10 nM biotin probe; 100 V; binding buffer; recombinant protein; residues 1-96; protein details: His-tag (pET-28a); label: biotin (universal biotinylated primer S1); probe letters rebuilt from the primers and the genome

Sequence: AGCCAGTGGCGATAAGTTACGGAAAAGCGAATAAAACCCCCCTCGCCACGGCTTTTCTCGGATGGCATGTGGCATACGGGCCGTGGTACTAAGTACGCCGATCGCGTCATTAGTAGGGGAAGCTTTGACTCAAAATTGTGTTGCTCCTGTTGCCATCATCCTTATCGCCACTGGCT (double strand) [pks5 promoter probe]
- binding result: binds
